Measured values: patent US6723841B2, “Corticotropin-releasing factor2 receptors” (priority 1994, dated 2004)
At least one structure is not confirmed: it was looked up by name or label, or the drawing left a doubt.

Biological target: T1, human CRF1 receptor (Homo sapiens, UniProt P34998)
T1 construct: expressed in transfected cells
T1 sequence (P34998 24-415): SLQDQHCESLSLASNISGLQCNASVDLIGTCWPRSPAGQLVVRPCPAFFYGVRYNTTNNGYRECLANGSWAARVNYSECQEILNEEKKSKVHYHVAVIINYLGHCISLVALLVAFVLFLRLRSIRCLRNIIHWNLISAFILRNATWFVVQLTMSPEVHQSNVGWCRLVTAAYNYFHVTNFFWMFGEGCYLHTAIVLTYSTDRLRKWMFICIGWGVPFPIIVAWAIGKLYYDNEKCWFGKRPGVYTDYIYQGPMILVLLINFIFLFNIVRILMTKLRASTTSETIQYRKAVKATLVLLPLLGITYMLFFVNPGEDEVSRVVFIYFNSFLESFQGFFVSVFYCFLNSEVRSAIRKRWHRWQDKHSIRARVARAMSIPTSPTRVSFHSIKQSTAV
Experiment: cAMP assay (adenylate cyclase stimulation) in cells transfected with CRF1 receptor
Assay type: cell-based
Conditions: read-out: effective concentration of one-half maximal adenylate cyclase stimulation (EC50), human CRF1 receptor, cAMP production

NC(=O)CC[C@@H]1NC(=O)[C@H](Cc2ccccc2)NC(=O)[C@H](Cc2ccc(O)cc2)NC(=O)[C@@H](N)CSSC[C@@H](C(=O)N2CCC[C@H]2C(=O)N[C@@H](CCCN=C(N)N)C(=O)NCC(N)=O)NC(=O)[C@H](CC(N)=O)NC1=O [AVP]
EC50: > 1000 nM
